Measured data: PubChem BioAssay AID652259 (Drosophila RNAi Screening Center, 2013)
Purpose: 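Genome-wide hunt for genes that control Wingless pathway activity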 (primary screen). Cell system: Drosophila clone 8 imaginal disc epithelial cells. Reagent: long dsRNA against Drosophila genes. Treatment: pathway stimulated by co-transfected Wingless expression plasmid. Read-out: 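Dual luciferase reads per well after Wingless plasmid stimulation: reporter firefly light and Renilla control light; activity is firefly divided by Renilla, a ratio not deposited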. Direction: firefly reporter light: higher = more Wg reporter light, before normalisation; Renilla control light: higher = more transfected or surviving cells. Call rule: 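a knock-down is a candidate when at least two out of four statistical tests show it departing from its plate mean; one test alone signals a weak candidate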. Meaning of the calls: active = candidate regulator (raises or lowers reporter); inactive = not a candidate.
The screen tested about 22,000 reagents; below is a random part of those with a known target gene and a result. Of all reagents, 233 (1.1%) were called active. 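Light values are raw, unnormalised plate reads; the ratio scores behind the reporter calls were not deposited.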 A plus sign joins genes that one reagent is predicted to hit. Reagent sequences are not shown. The record does not give: the amount of reagent, the time to read-out, the dose of the treatment.

CG15022 (GeneID 38549) [DRSC08476]: firefly reporter light, replicate 1 = 1225; firefly reporter light, replicate 2 = 8119; Renilla control light, replicate 1 = 1143; Renilla control light, replicate 2 = 3601; activity call = inactive
pes (GeneID 34087) [DRSC03033]: firefly reporter light, replicate 1 = 1699; firefly reporter light, replicate 2 = 5654; Renilla control light, replicate 1 = 720; Renilla control light, replicate 2 = 2725; activity call = inactive
AstC-R1 (GeneID 40020) [DRSC10799]: firefly reporter light, replicate 1 = 5674; Renilla control light, replicate 1 = 4056; activity call = inactive
ND-B8 (GeneID 50178) [DRSC00449]: firefly reporter light, replicate 1 = 4329; firefly reporter light, replicate 2 = 5719; Renilla control light, replicate 1 = 947; Renilla control light, replicate 2 = 1856; activity call = inactive
RunxB (GeneID 33051) [DRSC20395]: firefly reporter light, replicate 1 = 4653; Renilla control light, replicate 1 = 1592; activity call = inactive
RunxB (GeneID 33051) [DRSC20525]: firefly reporter light, replicate 1 = 20493; Renilla control light, replicate 1 = 6681; activity call = inactive
RunxB (GeneID 33051) [DRSC20526]: firefly reporter light, replicate 1 = 10368; Renilla control light, replicate 1 = 326; activity call = inactive
CG10013 (GeneID 41494) [DRSC14175]: firefly reporter light, replicate 1 = 5915; Renilla control light, replicate 1 = 2407; activity call = inactive
CG4984 + CG4975 [DRSC06907]: firefly reporter light, replicate 1 = 6618; Renilla control light, replicate 1 = 2203; activity call = inactive
CG4984 + CG4975 [DRSC06908]: firefly reporter light, replicate 1 = 19248; Renilla control light, replicate 1 = 5485; activity call = inactive
CG13738 (GeneID 39541) [DRSC10065]: firefly reporter light, replicate 1 = 5877; Renilla control light, replicate 1 = 1028; activity call = inactive
COX7C (GeneID 50246) [DRSC06831]: firefly reporter light, replicate 1 = 8050; Renilla control light, replicate 1 = 2483; activity call = inactive
CG15695 (GeneID 42468) [DRSC15117]: firefly reporter light, replicate 1 = 16851; Renilla control light, replicate 1 = 3431; activity call = inactive
CG11655 (GeneID 32472) [DRSC19413]: firefly reporter light, replicate 1 = 15632; Renilla control light, replicate 1 = 8176; activity call = inactive
tos (GeneID 35119) [DRSC03624]: firefly reporter light, replicate 1 = 5184; Renilla control light, replicate 1 = 2173; activity call = inactive
Zfrp8 (GeneID 45021) [DRSC04352]: firefly reporter light, replicate 1 = 1456; firefly reporter light, replicate 2 = 5812; Renilla control light, replicate 1 = 339; Renilla control light, replicate 2 = 2346; activity call = inactive
DEF8 (GeneID 39381) [DRSC09840]: firefly reporter light, replicate 1 = 3590; Renilla control light, replicate 1 = 1383; activity call = inactive

Quoted from the entries so far for reference:
CG15022 (GeneID 38549) [DRSC08476]: firefly reporter light, replicate 1 = 1225; firefly reporter light, replicate 2 = 8119; Renilla control light, replicate 1 = 1143; Renilla control light, replicate 2 = 3601; activity call = inactive
pes (GeneID 34087) [DRSC03033]: firefly reporter light, replicate 1 = 1699; firefly reporter light, replicate 2 = 5654; Renilla control light, replicate 1 = 720; Renilla control light, replicate 2 = 2725; activity call = inactive
